In BigSolDB 2.1:

COc1ccc2cc([C@H](C)C(=O)O)ccc2c1
solubility (mole fraction)
Details | 293.2 K | 298.2 K | 303.2 K | 308.2 K | 313.2 K
in ethanol | 0.0107 | 0.0117 | 0.0129 | 0.0139 | 0.0153
in ethylene glycol | 0.00304 | 0.0037 | 0.00438 | 0.00497 | 0.00562
